{"source": "patent US20190275058A1", "about": "“COMPOSITIONS AND METHODS FOR TREATING ADDICTION OR SUBSTANCE USE DISORDERS” (EMBERA NEUROTHERAPEUTICS, INC., priority 2016, published 2019)", "key": {"[1]": {"experiment": "Pharmacokinetic interaction between cocaine, metyrapone and oxazepam (plasma concentrations, GCMS)", "type": "in vivo, rat", "settings": "rats, ip", "method": ". Thirty minutes following the drug combination or vehicle injection, the rats received intravenous injections of cocaine (0.25 mg/kg/infusion) every 2 minutes for 1 hour. After the final injection of cocaine, blood was collected from the catheter for the analysis of cocaine and its metabolites ecgonine methyl ester and benzoylecgonine. […] All drug concentrations were determined using GCMS procedures. […]."}, "[2]": {"experiment": "Phase I single- and multiple-rising dose study: plasma pharmacokinetics", "settings": "human, in vivo; for Cmax: n 6; for AUC(0-t): n 6, read-out: AUC0-12", "text": "Total daily doses were double these amounts on BID dosing days. Primary outcomes were safety and pharmacokinetics of MET, its active metabolite (metyrapol), and OX. Safety measures included vital signs, ECGs an standard safety labs. Cortisol and other HPA axis parameters were monitored closely throughout the study.\nThey were not seeking to quit smoking. […] Primary outcomes were safety and pharmacokinetics."}, "[3]": {"settings": "270 mg Metyrapone/12 mg Oxazepam, Day 1, mean"}, "[4]": {"settings": "270 mg Metyrapone/12 mg Oxazepam, Day 10, mean"}, "[5]": {"settings": "540 mg Metyrapone/24 mg Oxazepam, Day 1, mean"}, "[6]": {"settings": "540 mg Metyrapone/24 mg Oxazepam, Day 10, mean"}, "[7]": {"settings": "720 mg Metyrapone/24 mg Oxazepam, Day 1, mean"}, "[8]": {"settings": "720 mg Metyrapone/24 mg Oxazepam, Day 10, mean"}}, "note": "Like-named read-outs stand apart in the source and are kept apart here.", "data": [{"smiles": "O=C1Nc2ccc(Cl)cc2C(c2ccccc2)=NC1O", "note": "(stereo not shown) [oxazepam]", "values": [{"measurement": "influence on plasma concentrations of each other", "setting": "[1]", "value": "did not influence plasma concentrations of each other"}, {"measurement": "Cmax", "setting": "[2]; [3]", "value": 220, "unit": "ng/mL"}, {"measurement": "AUC(0-t)", "setting": "[2]; [3]", "value": 1390, "unit": "ng·h/mL"}, {"measurement": "Cmax", "setting": "[2]; [4]", "value": 349, "unit": "ng/mL"}, {"measurement": "AUC(0-t)", "setting": "[2]; [4]", "value": 2330, "unit": "ng·h/mL"}, {"measurement": "Cmax", "setting": "[2]; [5]", "value": 486, "unit": "ng/mL"}, {"measurement": "AUC(0-t)", "setting": "[2]; [5]", "value": 3210, "unit": "ng·h/mL"}, {"measurement": "Cmax", "setting": "[2]; [6]", "value": 607, "unit": "ng/mL"}, {"measurement": "AUC(0-t)", "setting": "[2]; [6]", "value": 4080, "unit": "ng·h/mL"}, {"measurement": "Cmax", "setting": "[2]; [7]", "value": 439, "unit": "ng/mL"}, {"measurement": "AUC(0-t)", "setting": "[2]; [7]", "value": 2810, "unit": "ng·h/mL"}, {"measurement": "Cmax", "setting": "[2]; [8]", "value": 653, "unit": "ng/mL"}, {"measurement": "AUC(0-t)", "setting": "[2]; [8]", "value": 4540, "unit": "ng·h/mL"}]}]}
